Experimental data: the supplement of paper PMC8007513
The list shows a part of the results. Many values rest on one well or one pass, so single values are uncertain.

System: Saccharomyces cerevisiae BY4743
Test: growth (OD600) relative to untreated control; higher = less growth inhibition
Conditions: compound concentration: 133 uM; 20 h
Procedure: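 NMCCC compounds (133 uM, no IPBC) tested alone against Saccharomyces cerevisiae BY4743 in YPD, 96-well plates, starting OD600 ~0.1. Growth was read as OD600 at 20 h and expressed as % of the untreated control. Single pass.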

Row | SMILES | growth [%]
1 | COc1cc(Br)c(CC(=O)Nc2cc(C)ccn2)cc1OC | 91
2 | CCC(=O)N1CCc2cc(CNS(=O)(=O)N(C)C)ccc21 | 87.3
3 | CCN(CCN(C)C)C(=O)c1cc2c(s1)-c1ccc(Cl)cc1S(=O)(=O)C2 | 110
4 | CN(C(=O)Cn1c(=O)[nH]c2ccccc2c1=O)C1CCS(=O)(=O)C1 (configuration not stated) | 99.9
5 | CC(C)n1nnnc1SCc1nc(-c2ccccc2Cl)no1 | 94.4
6 | CC(CCc1ccccc1)NC(=O)N(C)Cc1nc(O)c2sccc2n1 (configuration not stated) | 93.1
7 | CSc1nsc(NC(=O)CN(C)Cc2ccc(Cl)s2)n1 | 109
8 | COc1nc(NS(=O)(=O)c2ccc(C)cc2)nc(C)c1Cl | 98.7
9 | Cc1cc(C)c(NC(=O)CNC(=O)CCc2ccc(C3CC3C)o2)c(C)c1 (configuration not stated) | 106
10 | Cc1nn(Cn2cc(Cl)cn2)c(C)c1NC(=O)c1ccc(Cl)cc1 | 110
11 | CC(Sc1nc(C(C)C)n(-c2ccccc2)n1)C(=O)N1CCNC1=O (configuration not stated) | 107
12 | O=C(CCSc1nnc(Nc2ccccc2F)s1)Nc1ccccc1F | 80.1
13 | Cc1ccc(-c2cnoc2NC(=O)CSC(C)C)cc1 | 102
14 | O=C(CSCc1ccccc1)Nc1nnc(Cc2ccc(Cl)cc2)s1 | 97.3
15 | Cc1c(CCO)c(O)oc2nnc(-c3ccccc3)c1-2 | 107
16 | CCSC1(SCC)\N=C(\N)C2(C#N)C(N\C(=C(\C)C12C#N)C)C3=CC=CC=C3 (configuration not stated) | 111
17 | CC/1=C/N2C(=O)\C=C(NC3CC(C)(C)NC(C)(C)C3)/N=C2/C=C1 | 101
18 | COC(=O)c1ccc(CS(=O)(=O)N2CCCC2c2ccc(OC)c(OC)c2)cc1 (configuration not stated) | 111
19 | CCC(C)C1=CC=C(NC(=O)\C2=C\C3=CC=CC=C3C(=O)O2)C=C1 (configuration not stated) | 103
20 | CC(=O)c1c(C)[nH]c(C(=O)C(C)NCc2ccccc2CN2CCCC2)c1C (configuration not stated) | 110
21 | Cc1noc(C)c1S(=O)(=O)NCCC(=O)N(C)Cc1ccc2c(c1)OCCO2 | 107
22 | Clc1nc(NCc2ccco2)c2[nH]cnc2n1 | 96.1
23 | FC(F)(F)C/1=C/N(CC2=CC=CC(=C2)[S](=O)(=O)N3CCOCC3)C(=O)/C(=C1)Cl | 107
24 | Cc1nn(-c2ccccc2)c(C)c1NC(=O)Cn1cnnn1 | 102
25 | CCCNC(=O)COC1=CC=C2C(=O)\C(=C(\C)OC2=C1)C3=CC=C(OC)C(=C3)OC | 104

Row | SMILES | growth [%]
26 | CCc1ccc(OCC(=O)NC2CCCCC2)c(-n2cnnc2)c1 | 104
27 | COC(=O)C(C)(C)NC(=O)CCN1\C=N/C2=C(C1=O)C(=CS2)C3=CC=C(C)C=C3 | 109
28 | COC(=O)CCc1nc(-c2nonc2N)no1 | 89
29 | CCOC(=O)c1cc(Oc2ccc(C#N)cn2)cc(C(=O)OCC)c1 | 83.7
30 | CC(C)CCNc1c2c(nc3nncn13)CCC2 | 111
31 | COc1ccc(Cl)cc1-c1n[nH]c(SCC(=O)NC(C)(C#N)C(C)C)n1 (configuration not stated) | 114
32 | CC1C2CC(CC(C)(C)C2)N1C/3=C(\Cl)C(=O)N(CC(O)=O)/N=C3 (configuration not stated) | 98.7
33 | CSc1nc(C)c(CC(=O)N2CCN(S(=O)(=O)c3ccccc3C(F)(F)F)CC2)s1 | 107
34 | CC(=O)N1CCSc2ccc(S(=O)(=O)Nc3ccc(OC(F)(F)F)cc3)cc21 | 119
35 | Cc1ccc(NC(=O)C2(N(C)C(=O)c3ccccn3)CCCCC2)cc1Br | 105
36 | N#Cc1ccc(NC(=O)COCC(=O)NCc2ccco2)cc1 | 86.9
37 | CCCC(=O)N\C1=C(\C(=O)C2=CC=CC=C2N1CC)C3=CC=CS3 | 111
38 | COc1ccc(CNC(=O)c2cc(C(F)(F)F)nn2C)cc1OC | 103
39 | O=C(Nc1ccccc1OC(F)F)c1ccc(NC2CC2)nc1 | 98.7
40 | Cc1noc(C)c1CSCC(=O)OCC(=O)N1CCN(c2ccccc2)CC1 | 96.6
41 | Cc1ccc(-c2noc(CCCC(=O)Nc3nncs3)n2)cc1 | 86.5
42 | CCOC(=O)c1c(C)c(C(=O)NCc2ccc3c(c2)OCO3)c(C)n1CC | 87.7
43 | CCOc1ccc(CNC(=O)C(C)n2nc(C)c3ccccc32)cc1OC (configuration not stated) | 102
44 | COc1ccccc1CCNC(=O)CSc1nnnn1Cc1ccccc1 | 112
45 | COCCN1\C=C/C2=C(OCC(=O)NC3=CC=C(Br)C=C3)C=CC=C2C1=O | 90
46 | O=S(=O)(NC1CCCCCC1)c1ccc(-c2ccno2)s1 | 92.9
47 | CCS(=O)(=O)N1Cc2ccccc2CC1C(=O)Nc1ccc(Br)cc1F (configuration not stated) | 104
48 | CC(=O)c1c(C)[nH]c(C(=O)C(C)Oc2ccc(F)c(Cl)c2)c1C (configuration not stated) | 109
49 | CCOC(=O)N1CCN(C(=O)c2ccc(S(=O)(=O)N3CCCC(C)C3)cc2)CC1 (configuration not stated) | 99.2
50 | CCCOC(=O)c1cccc(Nc2nc(C(=O)OCC)nc3ccccc23)c1 | 87.2

Retrieved by compound from above (6):
Row | SMILES | growth [%]
37 | CCCC(=O)N\C1=C(\C(=O)C2=CC=CC=C2N1CC)C3=CC=CS3 | 111
44 | COc1ccccc1CCNC(=O)CSc1nnnn1Cc1ccccc1 | 112
35 | Cc1ccc(NC(=O)C2(N(C)C(=O)c3ccccn3)CCCCC2)cc1Br | 105
33 | CSc1nc(C)c(CC(=O)N2CCN(S(=O)(=O)c3ccccc3C(F)(F)F)CC2)s1 | 107
32 | CC1C2CC(CC(C)(C)C2)N1C/3=C(\Cl)C(=O)N(CC(O)=O)/N=C3 (configuration not stated) | 98.7
43 | CCOc1ccc(CNC(=O)C(C)n2nc(C)c3ccccc32)cc1OC (configuration not stated) | 102

Remaining list, next part.

Row | SMILES | growth [%]
51 | CCN(CC)S(=O)(=O)c1ccc(OC)c(NC(=O)CS(=O)(=O)c2ccc(Cl)cc2)c1 | 104
52 | Cc1cccc(Nc2nnc(SCC(=O)c3ccc[nH]3)s2)c1 | 92.3
53 | Cc1ccccc1Cn1cc(NS(=O)(=O)c2ccc(Br)s2)cn1 | 110
54 | CCOC(=O)c1sc(NC(=O)CSc2n[nH]c(CC(C)C)n2)nc1C | 76.9
55 | Cc1csc(SCC(=O)N(C)Cc2ccc(C)o2)n1 | 96.9
56 | CC1=CC(=NO1)COC(=O)C/2=C/N3CC[S](=O)(=O)/N=C3/C=C2 | 95.1
57 | CC(=O)c1oc2ccccc2c1NC(=O)CSc1nc[nH]n1 | 110
58 | Cc1nn(C)c(C)c1CCC(=O)NCc1nnc2ccc(C(F)(F)F)cn12 | 96.5
59 | O=C(CCSc1nc(-c2ccco2)cc(C(F)(F)F)n1)NCCN1CCOCC1 | 90.3
60 | COc1ccccc1/N=C1\C(Cl)=C(O)OC1OC(=O)c1ccccc1Br (configuration not stated) | 107
61 | CC(C)C\C1=N\N/2C(=O)\C=C(COC3=CC=C(NC(C)=O)C=C3)/N=C2S1 | 104
62 | CCN(CC(=O)Nc1ccccc1C(F)(F)F)C(=O)CSCC(=O)Nc1cc(C)on1 | 98.7
63 | COc1cccc(NC(=O)Cc2csc(C(C)C)n2)c1 | 96.5
64 | CC(C)CC(=O)NC(C)C(c1cccs1)N1CCN(c2ccccc2)CC1 (configuration not stated) | 106
65 | CC(=O)NC1=CC=C(C=C1)C(=O)CO\C2=C\O\C(=C/C2=O)CN3CCSCC3 | 108
66 | CCCOc1ccc(CNC(=O)Cn2c(=O)oc3ccccc32)cc1 | 105
67 | CC(C)CCNC(=O)CN1C(=O)CSc2ncccc21 | 106
68 | O=C(O)CCc1ccc(-c2ccccc2)n1NC(=O)c1ccc(O)cc1 | 106
69 | CCC(=O)Nc1nc2ccc(CCC(=O)Nc3c(Cl)cc(OC)cc3OC)cc2s1 | 102
70 | CCc1nnc(NC(=O)C(=O)c2cc(C)n(-c3ccc(F)cc3)c2C)s1 | 97
71 | CCc1ccc(CN2C(=O)CN(S(C)(=O)=O)CC2(C)C(=O)NC2CCCC2)cc1 (configuration not stated) | 86.7
72 | CC\1(C)CC2=CC=CC=C2\C(=N1)CC(O)(C(F)(F)F)C(F)(F)F | 100
73 | CCOC(=O)Cn1c2ccc(F)cc2c2nc(C)sc21 | 90.4
74 | Cc1cc(C(F)(F)F)c2c(C#N)cn(-c3cnn(C)c3)c2n1 | 94.2
75 | CC(C)CCC(C)NC(=O)CSc1nnc(-c2ccc(F)c(F)c2)c(O)n1 (configuration not stated) | 107

Row | SMILES | growth [%]
76 | CC(C)(C)c1csc(NC(=O)c2csc(-c3ccsc3)n2)n1 | 76.3
77 | CCOC(=O)c1c(C)n(C)c2ccc(O)c(S(=O)(=O)c3ccc(OC)cc3)c12 | 92.9
78 | CCOC(=O)c1sc(NC(=O)C(F)(F)F)c(C(=O)OC)c1C | 96.3
79 | CCN(CC)c1nc2sc(C(=O)OCc3nccs3)cc2s1 | 71.6
80 | O=C(Nc1nc[nH]n1)c1ccc(C(F)(F)F)cn1 | 103
81 | CCN(C(=O)Nc1cccc(C(C)=O)c1)c1nc(-c2ccc(C)cc2)cs1 | 89.2
82 | CCOC(=O)\C1=C(/COC(=O)C2CCN(CC2)C(=O)C3=CC=CS3)NC(=O)NC1C (configuration not stated) | 98.1
83 | CC(C)(C)C1=CSC(=N1)NC(=O)\C2=N\N(CC3=CC=C(F)C=C3)C(=O)CC2 | 85.5
84 | CNC(=O)\C1=C(/NCC2=CC=CO2)C3=CC=CC=C3[S]1(=O)=O | 91.6
85 | COC1=CC=C(CCNC(=O)\C2=C\C3=C(CS2)C(=C(C)S3)C)C=C1OC | 98.2
86 | CC(C)c1ccc(C(=O)Cn2cnc(C#N)n2)c(C(C)C)c1 | 102
87 | O=C(COC(=O)C1CCN(C(=O)Nc2ccccc2)CC1)c1ccc(Cl)s1 | 100
88 | CC(C(=O)NC(=O)NC(C)(C)C)N1CCC(c2nc3ccccc3s2)CC1 (configuration not stated) | 110
89 | CCOC1=CC=C(NC(=O)CS\C2=C(/C#N)C(CC(=O)N2)C3=CC=CS3)C=C1 (configuration not stated) | 94.9
90 | Cc1nc(C)c(C(=O)OCC(=O)Nc2sc3c(c2C(N)=O)CCCC3)s1 | 106
91 | Cn1cccc1C(=O)NC(=O)COc1ccccc1C#N | 98.3
92 | Oc1ccc(Cl)cc1-c1cc(-c2ccco2)[nH]n1 | 3.52
93 | COc1cc(C(C)NC(=O)c2c(-c3ccccc3)noc2C)cc(OC)c1OC (configuration not stated) | 97
94 | Nc1cc(C2CC2)nn1Cc1ccccc1 | 101
95 | CCCNC(=O)CN(C)C(=O)c1ccc(-c2cc(Cl)ccc2Cl)o1 | 100
96 | CCOc1ccccc1C(=O)N(Cc1ccc(N(C)C)cc1)c1ccccn1 | 106
97 | CCCOc1ccc(C(F)(F)F)cc1NS(=O)(=O)c1ccc(CNC(C)=O)s1 | 95.5
